Results: patent publication US7090874B2, “Ligand for peroxisome proliferator-activated receptor” (Kaneka Corporation, priority 2001, dated 2006)

System: C57BL/6J mice
Experiment: Effect in model mice of diet-induced obesity (adipose tissue weights)
Assay type: in vivo, mouse
Experimental: C57BL/6J mice (females, 8 weeks old) were freely accessible to a high fat/high sugar diet (Oriental Yeast Co., Ltd., Table 6) for 8 weeks to obtain dietary obese animals. By using a normal diet (Oriental Yeast Co. Ltd., Table 3) as a base feed, two types of feeds, i.e., a diet without any additives and with 0.5% curcumin, were prepared. Next, said mice were divided into 2 groups (7 animals per group), and each group was freely accessible to a diet without any additives (control group) or with 0.5% curcumin (curcumin group) for 4 weeks. After an overnight fasting, mice were subjected to abdominal section under ether anesthesia to collect blood from the abdominal aorta, and then sacrificed. Then, adipose tissues were collected from the tissues around uterus, kidney and mesentery, and their weights were determined. The sum of the weights of periuterine, perirenal and mesenteric adipose tissues was determined as the total amount of intra-abdominal adipose tissue.

SMILES: COc1cc(/C=C/C(=O)/C=C(O)/C=C/c2ccc(O)c(OC)c2)ccc1O [Compound 1, Curcumin]
- Diet intake amount compared with control group: no significant difference
- Diet intake amount (diet-induced obese C57BL/6J mice, 0.5% curcumin diet for 4 weeks, mean ± SD): 3.24 ± 0.55 g/day/animal
